Assay results published in the supplement of paper PMC9454738.
Counter-ions that a name gives are not always drawn. ± gives the standard deviation of the averaged measurements. This is one part of the list. Single values are uncertain here, since repeats match poorly.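 Test systems: triple-negative MDA-MB-231 breast cancer cells and their brain-metastatic MDA-MB-231BRM derivative, each stably carrying empty vector, full-length GLI1 or truncated tGLI1. Viability after 48 h was read by CellTiter-Blue and expressed against 1% DMSO vehicle. A compound was tGLI1-selective if it lowered viability 20% more in tGLI1 cells than in vector and GLI1 cells.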

Columns and labels:
Experiment in all cases: cell viability relative to vehicle (DMSO) control (fraction); higher = more viable cells (less growth inhibition)
Settings in all cases: treatment time 48 h
[1] = test system: MDA-MB-231 GLI1
[2] = test system: MDA-MB-231 Vector
[3] = test system: MDA-MB-231 tGLI1
[4] = test system: MDA-MB-231BRM GLI1
[5] = test system: MDA-MB-231BRM Vector
[6] = test system: MDA-MB-231BRM tGLI1

SMILES	cell viability ([1]; 0.05 µM)	cell viability ([1]; 0.5 µM)	cell viability ([1]; 5 µM)	cell viability ([2]; 0.05 µM)	cell viability ([2]; 0.5 µM)	cell viability ([2]; 5 µM)	cell viability ([3]; 0.05 µM)	cell viability ([3]; 0.5 µM)	cell viability ([3]; 5 µM)	cell viability ([4]; 0.05 µM)	cell viability ([4]; 0.5 µM)	cell viability ([4]; 5 µM)	cell viability ([5]; 0.05 µM)	cell viability ([5]; 0.5 µM)	cell viability ([5]; 5 µM)	cell viability ([6]; 0.05 µM)	cell viability ([6]; 0.5 µM)	cell viability ([6]; 5 µM)
Cc1ccc(Nc2nccc(N(C)c3ccc4c(C)n(C)nc4c3)n2)cc1S(N)(=O)=O [Pazopanib HCl]	1.16	1.16	1.18	1.41	1.31	1.37	1.17	1.04	1	1.02	0.971	0.828	1.08	0.973	0.952	1.08	1.01	0.933
CO[C@H]1C[C@@H]2CC[C@@H](C)[C@@](O)(O2)C(=O)C(=O)N2CCCC[C@H]2C(=O)O[C@H]([C@H](C)C[C@@H]2CC[C@@H](O)[C@H](OC)C2)CC(=O)[C@H](C)/C=C(\C)[C@@H](O)[C@@H](OC)C(=O)[C@H](C)C[C@H](C)/C=C/C=C/C=C/1C [Rapamycin (Sirolimus)]	0.866 ± 0.04	0.835 ± 0.28	0.606 ± 0.11	0.803 ± 0.1	0.655 ± 0.14	0.583 ± 0.054	0.773 ± 0.079	0.682 ± 0.15	0.591 ± 0.065	0.847 ± 0.016	0.803 ± 0.087	0.75 ± 0.17	0.827 ± 0.018	0.8356 ± 0.0035	0.778 ± 0.19	0.912 ± 0.025	0.795 ± 0.012	0.785 ± 0.12
O=C(Nc1nc2cccc(-c3ccc(CN4CCS(=O)(=O)CC4)cc3)n2n1)C1CC1 [Filgotinib (GLPG0634)]	2.19	3.13	1.02	1.3	1.38	0.83	1.31	1.45	0.844	0.841	0.748	0.73	0.923	0.749	0.76	1.19	1.12	1.23
Cc1ccc(NC(=O)c2ccc(CN3CCN(C)CC3)cc2)cc1Nc1nccc(-c2cccnc2)n1 [Imatinib Mesylate]	1.23	1.11	1.01	1.29	1.28	1.4	1.29	1.35	0.968	1.06	0.941	0.664	0.928	0.841	0.711	1.03	0.914	0.802
Cn1cnc2c(F)c(Nc3ccc(Br)cc3Cl)c(C(=O)NOCCO)cc21 [Selumetinib (AZD6244)]	1.01	1.11	0.795	0.894	0.658	0.468	0.777	0.934	0.555	0.941	1.01	0.939	0.974	0.937	0.97	0.927	0.952	0.723
Cc1nc(NC(=O)N2CCC[C@H]2C(N)=O)sc1-c1ccnc(C(C)(C)C(F)(F)F)c1	1.06	0.76	0.845	0.997	0.887	0.656	1.11	0.881	0.699	1.07	1.06	0.805	1.03	1.06	0.548	1.04	1.05	0.602
O=C(Nc1c[nH]nc1-c1nc2ccc(CN3CCOCC3)cc2[nH]1)NC1CC1	1.19	0.85	0.255	1.13	0.863	0.266	0.763	0.873	0.266	0.959	1.01	0.95	0.922	0.979	0.892	1.02	0.908	0.843
O=C(NOCC(O)CO)c1cc(Br)c(F)c(F)c1Nc1ccc(I)cc1F (centres undefined)	1.19	1.24	0.732	1.53	0.898	0.614	0.98	0.998	0.643	0.659	1.25	0.966	1.16	1.08	0.983	0.999	1.22	0.892
COc1cc2ncnc(Nc3ccc(O)c(Br)c3)c2cc1OC	0.586	1.1	0.598	1.08	1.17	0.773	0.878	1.23	0.78	0.977	0.913	0.863	1.07	1	0.869	1.02	0.946	0.914
Cn1c(Nc2ccc(C(F)(F)F)cc2)nc2cc(Oc3ccnc(-c4ncc(C(F)(F)F)[nH]4)c3)ccc21	1.11	0.973	0.777	1.4	0.716	0.599	0.935	0.783	0.711	1.11	0.999	0.566	1.17	0.971	0.672	1.03	1.01	0.587
CNC(=O)c1cccc(-c2ccc3c(N4CCOC[C@@H]4C)nc(N4CCOC[C@@H]4C)nc3n2)c1	0.972	0.549	0.244	0.96	0.924	0.226	1.07	0.502	0.366	0.914	0.789	0.537	0.92	0.909	0.499	0.965	0.764	0.473
Nc1cccc(S(=O)(=O)N2CCCN(S(=O)(=O)c3ccc4c(c3)OCCO4)CC2)c1	2.13	2.96	1.86	1.29	1.34	1.28	1.46	1.49	1.33	0.776	0.749	0.725	0.855	0.759	0.805	1.13	1.11	1.16
c1cncc(CN2CCC(n3ncc4c(N5CCOCC5)nc(-c5ccc6[nH]ccc6c5)nc43)CC2)c1	1.21	1.03	0.0842	1.19	1.15	0.233	1.24	1.05	0.107	0.995	0.9	0.609	0.929	0.871	0.602	1.03	0.823	0.636

Fetched by compound from the entries so far, 2 records:
SMILES	cell viability ([1]; 0.05 µM)	cell viability ([1]; 0.5 µM)	cell viability ([1]; 5 µM)	cell viability ([2]; 0.05 µM)	cell viability ([2]; 0.5 µM)	cell viability ([2]; 5 µM)	cell viability ([3]; 0.05 µM)	cell viability ([3]; 0.5 µM)	cell viability ([3]; 5 µM)	cell viability ([4]; 0.05 µM)	cell viability ([4]; 0.5 µM)	cell viability ([4]; 5 µM)	cell viability ([5]; 0.05 µM)	cell viability ([5]; 0.5 µM)	cell viability ([5]; 5 µM)	cell viability ([6]; 0.05 µM)	cell viability ([6]; 0.5 µM)	cell viability ([6]; 5 µM)
Cn1c(Nc2ccc(C(F)(F)F)cc2)nc2cc(Oc3ccnc(-c4ncc(C(F)(F)F)[nH]4)c3)ccc21	1.11	0.973	0.777	1.4	0.716	0.599	0.935	0.783	0.711	1.11	0.999	0.566	1.17	0.971	0.672	1.03	1.01	0.587
O=C(Nc1c[nH]nc1-c1nc2ccc(CN3CCOCC3)cc2[nH]1)NC1CC1	1.19	0.85	0.255	1.13	0.863	0.266	0.763	0.873	0.266	0.959	1.01	0.95	0.922	0.979	0.892	1.02	0.908	0.843
